Laboratory results: patent publication EP4669671A1
No constants are given. Whether binding was seen depends on the method and setting. Some results given as binding are weak or reduced against the parent protein; the word gives no strength.

Target: His-tagged recombinant monkey (Cynomolgus monkey, or Macaca fascicularis) IL2RA protein (Sino Biological, Inc., Cat#: 90265-C08H) (Cynomolgus monkey (Macaca fascicularis))
Assay: SPR (Biacore 8K), antibody captured on Protein A chip, His-tagged IL2RA as analyte

Row | binding | Binder
1 | binds | anti-IL2RA antibody 5D9 (antibody, V domains shown) VH: EVQLVESGGGLVQPGGSLRLSCAASGFTVSSNYMSWVRQTPGKGLELVSFIYSGGITSYADSVRGRFTISRDNSKNTLYLQMNSLRAEDTAVYYCARDDYSNYFDYWGQGTLVTVSS VL: DIQMTQSPSSVSASVGDRVTITCRASQGISNWLAWYQQKPGKAPKLLIFAASSLQSGVPSRFSGSGSGTDFTLTISSLQPEDFATYYCQQAKSFPITFGQGTRLEIK
2 | binds | anti-IL2RA antibody 7B5 (antibody, V domains shown) VH: EVQLQQWGAGLLKPSETLSLTCAVYGGSFSGYYWNWIRQPPGKGLEWIGESDHSGSTHFNPSLKSRVTISLDTSKNQFSLKLNSVTAADTAVYFCARAPDYGDFDHWGQGILVTVSS VL: DIQMTQSPDSLAVSLGERATINCRSSQSVLHSSTNKRYLAWYQQKPRQPPKLLIYWTSTRESGVPDRFSGSGSGTDFTLTISSLQAEDVAVYFCQQYYSTPYTFGQGTKLEIK
